Measurements from PubChem BioAssay AID493014 (National Center for Advancing Translational Sciences (NCATS), 2011).
Some of the results follow. Shown are side measurements of this screen, not its main read-out; they come without a call. Compounds called inactive in the main read-out are mostly missing here. The note in brackets gives the kind of curve behind each potency; many fits are weak.

Test: qHTS Assay to Find Inhibitors of Chronic Active B-Cell Receptor Signaling
Conditions: ABC-DLBCL IkBa-CBG/CBR reporter, luminescence ratio (green luciferase fused to IkBa over red control in TMD8 lymphoma cells), 4 h
In short: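 Concentration-response series (up to 46 uM) were applied to TMD8 dual-reporter cells for 4 h at 37C with doxycycline. Green/red ratio, after filter-overlap correction, defined %Activity; red signal alone was normalised to basal cells and zero luminescence.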

[1] = measured here: CBR red luminescence, cell number
[2] = measured here: IkBa-CBG green luminescence

SMILES	AC50 [1]	AC50 [2]
CN(C)CCCN(CCCN(C)C)C(=S)Nc1ccc(S(=O)(=O)N2CCOCC2)cc1	7.08 µM [falling, partial curve, poor fit]	–
O=C(O)CCC(=O)Nc1ccc(N2CCCCCC2)cc1	0.058 µM [falling, full curve]	–
Cn1c(SCC(=O)Nc2nccs2)nnc1-c1ccco1	29.1 µM [falling, single point]	–
c1ccc(Nc2nc(N3CCOCC3)c3ccccc3n2)cc1	32.6 µM [falling, single point]	–
NC(=O)c1ccsc1NC(=O)COC(=O)c1cc(=O)[nH]c2ccccc12	2.91 µM [falling, full curve, poor fit]	–
COc1ccc(CCNC(=S)Nc2cccc3ccccc23)cc1	6.51 µM [rising, partial curve, poor fit]	29.1 µM [falling, single point]
O=C(CC1CCCCC1)N1CCN(c2ccccn2)CC1	32.6 µM [falling, partial curve, poor fit]	–
O=C(CCC(=O)c1ccc(Cl)s1)Nc1ncccc1O	18.4 µM [falling, partial curve]	–
O=C(COC(=O)C1(c2ccccc2F)CCCC1)NCc1ccc2c(c1)OCO2	5.17 µM [rising, single point]	–
C/C(=N/O)c1cccc(N2Cc3ccccc3C2)c1	22.4 µM [falling, single point]	–
FC(F)(F)c1cccc(-c2ccc(-c3csnn3)o2)c1	2.82 µM [rising, full curve, poor fit]	–
C1CCCC(NC2=NCCO2)CCC1	0.891 µM [falling, full curve, poor fit]	–
CC1=NN(c2ccccc2)C(=O)C1C(=O)c1ccc([N+](=O)[O-])cc1 (stereo unspecified)	35.5 µM [falling, partial curve, poor fit]	–
CSc1ccc(CNCCN2CCOCC2)cc1	0.708 µM [rising, full curve, poor fit]	–
Cc1ccc(S(=O)(=O)N(C)CC(=O)OCC(=O)c2ccc3c(c2)NC(=O)CO3)cc1	29.1 µM [rising, single point]	–
S=C(NCCc1ccccc1)Nc1ccc(Nc2ccccc2)cc1	0.158 µM [falling, full curve]	–
COc1ccc(-c2noc(CCC(=O)NC3CCN(Cc4ccccc4)CC3)n2)cc1	7.31 µM [rising, partial curve, poor fit]	–
c1ccc(-c2cc(-c3nnc4sc(-c5ccccn5)nn34)[nH]n2)cc1	3.98 µM [falling, full curve]	–
O=C(COc1ccccc1Br)c1ccc(O)cc1O	3.55 µM [falling, full curve, poor fit]	–
CCCC(=O)N1CCc2cc(OC)c(OC)cc2C1COc1ccccc1OC (stereo unspecified)	2.82 µM [rising, partial curve, poor fit]	–
C=CCn1c(NC(=O)c2ccco2)c(S(=O)(=O)c2ccccc2)c2nc3ccccc3nc21	17.8 µM [falling, partial curve, poor fit]	–
COc1cc(C#Cc2c(-c3cncn3C)n(C)c3ccc(-c4ccc(OC)c(OC)c4)cc23)cc(OC)c1	2.91 µM [falling, full curve]	–

Sorted by molecular weight (falling): 4 of the compounds above.
SMILES	AC50 [1]	AC50 [2]
COc1cc(C#Cc2c(-c3cncn3C)n(C)c3ccc(-c4ccc(OC)c(OC)c4)cc23)cc(OC)c1	2.91 µM [falling, full curve]	–
CCCC(=O)N1CCc2cc(OC)c(OC)cc2C1COc1ccccc1OC (stereo unspecified)	2.82 µM [rising, partial curve, poor fit]	–
O=C(O)CCC(=O)Nc1ccc(N2CCCCCC2)cc1	0.058 µM [falling, full curve]	–
C1CCCC(NC2=NCCO2)CCC1	0.891 µM [falling, full curve, poor fit]	–

(further entries)

SMILES	AC50 [1]	AC50 [2]
O=C(Nc1ccc(-c2nc3ccccc3s2)cc1)c1cc(-n2cnnc2)ccc1Cl	35.5 µM [rising, single point]	–
O=C(NCc1ccccn1)C(=O)Nc1ccccc1	6.31 µM [falling, partial curve]	–
Nc1c(C(=O)CSc2ncccn2)c(=O)[nH]c(=O)n1C1CC1	29.1 µM [rising, single point]	–
CC(C)CC1NC(=O)N(CC(=O)N2CCN(S(=O)(=O)c3ccc4ccccc4c3)CC2)C1=O (stereo unspecified)	29.1 µM [rising, single point]	–
COc1ccc2[nH]cc(CCNC(=O)Nc3ccccc3)c2c1	3.98 µM [rising, full curve, poor fit]	–
CCOc1ccccc1CN1CCN(Cc2cccc3nonc23)CC1CCO (stereo unspecified)	6.31 µM [falling, single point]	–
O=C(N/N=C/c1ccc(N2CCCCC2)o1)c1ccccc1	8.2 µM [falling, partial curve]	–
CC(C)c1ccc(NC(=O)NCc2cccnc2)cc1	0.316 µM [rising, full curve, poor fit]	–
O=C(NCCN1CCOCC1)c1cc(-c2ccc(F)cc2)on1	7.08 µM [falling, full curve]	–
COc1ccc(C(O)(c2ccccc2OC)C(CN2CCOCC2)c2ccccc2)cc1 (stereo unspecified)	14.1 µM [falling, single point]	–
CCn1c(SCc2nc3ccccc3c(=O)[nH]2)nc2ccccc2c1=O	32.6 µM [rising, single point]	–
CSc1nc(N)nc2c1ncn2CC(=O)N[C@H](C)c1cccc2ccccc12	18.4 µM [falling, partial curve, poor fit]	–
O=C(CSc1nc(Nc2ccccc2)nc(N2CCOCC2)n1)Nc1ccc([N+](=O)[O-])cc1	16.4 µM [falling, single point]	–
O=C(c1cccc(F)c1)N1CCN(Cc2c[nH]c3ccccc23)CC1	1 µM [falling, full curve, poor fit]	–
COc1cc(/C=N/N(c2ccccc2)c2ccccc2)ccc1O	11.2 µM [falling, partial curve]	–
O=C1CCC(C(=O)N2CCN(c3ccc(F)cc3)CC2)CN1CC1CCCCC1 (stereo unspecified)	35.5 µM [falling, single point]	–
COc1ccc(C(=O)NCCc2nnc3ccc(SCC(=O)Nc4ccccc4)nn23)cc1	35.5 µM [falling, single point]	–
CC(C)(C)c1ccc(S(=O)(=O)NCC(=O)Nc2sc3c(c2C(N)=O)CCCC3)cc1	6.51 µM [rising, single point]	–
CSc1n[nH]c(-c2ccc(C(F)(F)F)cc2)n1	3.98 µM [rising, full curve, poor fit]	–
COC(=O)CCS(=O)(=O)c1nc(-c2ccccc2)cc(C(F)(F)F)n1	5.8 µM [falling, full curve, poor fit]	5.17 µM [rising, full curve, poor fit]
CCOC(=O)N1CCN(S(=O)(=O)c2ccc(F)c(C(=O)Nc3ccc(C(C)C)cc3)c2)CC1	32.6 µM [falling, single point]	–
O=C(c1ccc(-c2nc3ccccc3s2)s1)N1CCOCC1	12.6 µM [falling, single point]	–

Shown in markdown: entries from further up

| SMILES | AC50 [1] | AC50 [2] |
| --- | --- | --- |
| CCn1c(SCc2nc3ccccc3c(=O)[nH]2)nc2ccccc2c1=O | 32.6 µM [rising, single point] | – |
| CSc1nc(N)nc2c1ncn2CC(=O)N[C@H](C)c1cccc2ccccc12 | 18.4 µM [falling, partial curve, poor fit] | – |

Additional records follow.

SMILES	AC50 [1]	AC50 [2]
CCOC(=O)CSc1nc(C)cc2c1C(=O)OC2	17.8 µM [falling, partial curve, poor fit]	–
COc1cc(C(=O)NC(C)C2CC3CCC2C3)ccc1OC(F)F (stereo unspecified)	2.59 µM [rising, partial curve, poor fit]	–
O=C(Cn1nc(CNc2ccc(Br)cc2)[n+]2c1CCCCC2)c1ccc([N+](=O)[O-])cc1	7.08 µM [rising, full curve, poor fit]	–
CCN(CC)c1ccc(C=NCCNS(=O)(=O)c2ccc(C)cc2)cc1	10 µM [falling, partial curve, poor fit]	–
Cn1ccc(C(=O)NC(=S)N2CCSCC2)n1	6.31 µM [rising, single point]	–
CCN(CC)Cc1ccccc1CNC(=O)c1cccc(S(=O)(=O)Nc2ccc3c(c2)OCO3)c1	–	18.4 µM [falling, partial curve, poor fit]
COc1ccc(/C=N/Nc2nncc3ccccc23)cc1	29.1 µM [falling, single point]	–
NC(=O)C1CC(=O)N(c2ccc(OCc3ccc(F)cc3)cc2)C1 (stereo unspecified)	6.31 µM [falling, single point]	–
COc1ccc(-n2c(SCC(=O)N3CCCC(C)C3)nnc2-c2cccnc2)cc1 (stereo unspecified)	11.2 µM [rising, partial curve, poor fit]	–
COc1cc2nc(NCC3CCCO3)n3nc(-c4cccnc4)nc3c2cc1OC (stereo unspecified)	0.0731 µM [rising, full curve, poor fit]	–
CCN(CC)C(=O)Cn1cc(C(=O)C(=O)NCc2ccccn2)c2ccccc21	5.01 µM [falling, partial curve]	–
O=C(Cn1nnc2ccccc2c1=O)NCCc1ccc(F)cc1	0.058 µM [rising, full curve, poor fit]	–
CCCCC(=O)Nc1cccc(-c2cn3ccsc3n2)c1	3.16 µM [rising, partial curve]	–
O=C(Nc1nc(-c2ccccn2)cs1)c1ccccc1-n1cnnn1	35.5 µM [falling, single point]	–
O=C(CNC(=O)c1ccc(Cl)cc1)OCc1nc2ccccc2s1	1.3 µM [falling, full curve, poor fit]	–
COc1ccccc1N=C1NC(=O)/C(=C/c2ccc(N(C)C)cc2)S1	1.12 µM [falling, partial curve]	–
c1ccc(-c2cnc(CSc3nnc4ccccn34)o2)cc1	18.4 µM [falling, single point]	–
Cc1ccc(S(=O)(=O)Cc2ccc(C(=O)NCCCN3CCN(C)CC3)o2)cc1	23.1 µM [rising, single point]	–
CCCn1c2ccccc2c2cnn(CC(=O)NCCOC)c(=O)c21	3.55 µM [rising, single point]	–
COc1ccc(-c2cc(C(=O)NC(Cc3cc4ccccc4[nH]3)C(=O)O)c(C)o2)cc1OC (stereo unspecified)	–	2.82 µM [rising, full curve]
